{"source": "paper doi:10.1101/334433", "about": "(bioRxiv, 2018)", "key": {"[1]": {"molecular_target": "T1, endogenous Peli1 (Pellino 1) (human (endogenous in HaCaT)) (UniProt Q96FA3)", "T1 sequence": "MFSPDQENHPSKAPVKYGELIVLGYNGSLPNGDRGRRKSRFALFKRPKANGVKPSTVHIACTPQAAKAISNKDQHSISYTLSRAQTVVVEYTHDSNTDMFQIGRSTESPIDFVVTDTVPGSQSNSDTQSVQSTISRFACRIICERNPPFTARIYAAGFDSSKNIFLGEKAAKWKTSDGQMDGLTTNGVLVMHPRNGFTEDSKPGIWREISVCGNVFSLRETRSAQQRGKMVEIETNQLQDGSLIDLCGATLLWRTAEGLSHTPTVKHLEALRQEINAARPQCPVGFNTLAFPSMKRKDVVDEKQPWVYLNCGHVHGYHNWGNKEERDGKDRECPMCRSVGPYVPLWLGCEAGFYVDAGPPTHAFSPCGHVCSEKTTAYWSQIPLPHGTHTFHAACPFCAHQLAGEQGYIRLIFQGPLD", "assay": "co-IP"}, "[2]": {"molecular_target": "T2, GST-Peli1 fusion protein (human) (UniProt Q96FA3)", "T2 sequence": "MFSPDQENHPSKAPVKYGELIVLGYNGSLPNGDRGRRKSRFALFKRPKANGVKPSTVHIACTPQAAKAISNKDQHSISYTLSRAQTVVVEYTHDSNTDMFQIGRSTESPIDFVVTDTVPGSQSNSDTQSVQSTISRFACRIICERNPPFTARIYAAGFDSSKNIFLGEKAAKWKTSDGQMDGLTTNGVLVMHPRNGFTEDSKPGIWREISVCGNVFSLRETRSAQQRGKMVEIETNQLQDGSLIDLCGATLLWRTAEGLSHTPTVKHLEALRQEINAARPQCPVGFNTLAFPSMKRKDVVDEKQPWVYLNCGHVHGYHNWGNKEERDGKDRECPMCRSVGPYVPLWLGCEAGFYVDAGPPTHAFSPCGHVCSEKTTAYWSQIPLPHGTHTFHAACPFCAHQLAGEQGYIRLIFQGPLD", "assay": "pull-down"}}, "note": "No constants are given. Whether binding was seen depends on the method and setting. In cells and extracts the contact can be indirect. Some entries that bind do so weakly or less than the wild type. For some assays here: Where a sequence is shown, tags or fusion partners need not be part of it."}
{"binder": "endogenous IRF4 (interferon regulatory factor 4) (protein, UniProt Q15306 1-451) MNLEGGGRGGEFGMSAVSCGNGKLRQWLIDQIDSGKYPGLVWENEEKSIFRIPWKHAGKQDYNREEDAALFKAWALFKGKFREGIDKPDPPTWKTRLRCALNKSNDFEELVERSQLDISDPYKVYRIVPEGAKKGAKQLTLEDPQMSMSHPYTMTTPYPSLPAQQVHNYMMPPLDRSWRDYVPDQPHPEIPYQCPMTFGPRGHHWQGPACENGCQVTGTFYACAPPESQAPGVPTEPSIRSAEALAFSDCRLHICLYYREILVKELTTSSPEGCRISHGHTYDASNLDQVLFPYPEDNGQRKNIEKLLSHLERGVVLWMAPDGLYAKRLCQSRIYWDGPLALCNDRPNKLERDQTCKLFDTQQFLSELQAFAHHGRSLPRFQVTLCFGEEFPDPQRQRKLITAHVEPLLARQLYYFAQQNSGHFLRGYDLPEHISNPEDYHRSIRHSSIQE", "values": [{"measurement": "binding", "setting": "[1]", "result": "binds"}, {"measurement": "binding", "setting": "[2]", "result": "binds"}]}
